Patent publication US20060194856A1, “Use of atii antagonist for the treatment or prevention of metabolic syndrome” (ASTRAZENECA AB, priority 2003, published 2006)

Assay: Clinical study: drug usage and discontinuation
Type: in vivo, patients
Conditions: for patients who needed add-on treatment: at the end of study, add-on felodipine (mean 3 mg) to candesartan cilexetil, atenolol (mean 68 mg) to hydrochlorothiazide; for discontinuation rate: one-year study, 197 randomised to candesartan cilexetil, 196 to hydrochlorothiazide

SMILES | patients who needed add-on treatment [%] | discontinuation rate [%]
NS(=O)(=O)c1cc2c(cc1Cl)NCNS2(=O)=O [HCTZ, hydrochlorothiazide] | 84 | 7.1
CCOc1nc2cccc(C(=O)OC(C)OC(=O)OC3CCCCC3)c2n1Cc1ccc(-c2ccccc2-c2nn[nH]n2)cc1 (stereo not shown) [Candesartan cilexetil, candesartan cilexetil] | 71 | 8.2
